This passage reports cell number change and AC50 results from PubChem BioAssay AID2685 (National Center for Advancing Translational Sciences (NCATS), 2010).

Structures are written as SMILES. This is one part of the list. Further columns of the screen follow, without active or inactive calls. Compounds called inactive in the main read-out are mostly missing here. Words in brackets tell the shape of the fitted curve; partial curves, single points and poor fits give uncertain potencies.

The nature of this assay: qHTS Assay for Lipid Storage Modulators in Drosophila S3 Cells.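 As to cell number change: cells counted by Cell Tracker Red CMTPX staining in the red channel.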 Conditions: BODIPY lipid droplet fluorescence, 18-24 h; for cell number change: measured here: cell count max response, cells fed with added oleic acid. The essentials: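 Drosophila S3 cells got compounds at several concentrations plus oleic acid (400 uM solution). Laser-scanning cytometry with 488 nm excitation read lipid droplets at 500-530 nm and cells at 575-640 nm. Percent activity was relative to 20 uM Triacsin C.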
Background: Quantitative high-throughput screening tests each substance at several concentrations.

Setting [1] is: measured here: lipid fluorescence (Fed channel) AC50, cells fed with added oleic acid.
Setting [2] is: measured here: cell number channel AC50, cells fed with added oleic acid.

With `COc1ccc(C2N(c3ccc(F)cc3)C(=O)C3CCCN32)cc1` (stereo not drawn), the cell number change came out at 15.9%. Further, under setting [1], the AC50 (in general, the concentration at which the activity in the assay is half-maximal) was 3.26 µM [rising, single point]. With `COc1ccc(CNC(=O)C(=O)NCC2OCCN2S(=O)(=O)c2ccc(OC)c(OC)c2)cc1` (stereo not drawn), the cell number change stood at 1.08%. With `Cc1ccc(NC(=O)CCNS(=O)(=O)c2ccc3c(c2)oc(=O)n3C)c(C)c1`, the cell number change turned out to be 31.6%. Under setting [2], the AC50 was 0.92 µM [rising, full curve, poor fit]. For the same molecule, the AC50 under setting [1] was 0.82 µM [rising, partial curve]. With `O=C(NC(=S)Nc1ccc(N2CCOCC2)cc1)c1ccc2c(c1)OCCO2`, the cell number change is -16%. Besides, under setting [1], the AC50 is 2.91 µM [rising, partial curve, poor fit]. With `O=C(CSc1nnc(-c2ccc(OC(F)F)cc2)o1)NCc1cccs1`, the cell number change is 57.3%. Moreover, under setting [2], the AC50 was 29.1 µM [rising, single point]. In addition, the AC50 under setting [1] was 29.1 µM [rising, partial curve]. On to `CC1CCCCN1S(=O)(=O)c1ccc(C(=O)Nc2sccc2C(N)=O)cc1` (stereo not drawn), for which the cell number change was 6.86%. Further, under setting [1], the AC50 is 29.1 µM [falling, single point]. As for `Cc1ccc(C(=O)NCc2ccccc2F)cc1S(=O)(=O)N1CCCC1`, the cell number change is -1.32%. For the molecule `COC(=O)COc1ccc(C(=O)OC)cc1`, the cell number change was -5.71%. Besides, the AC50 under setting [2] was 6.51 µM [falling, single point]. Further, the AC50 under setting [1] was 6.51 µM [falling, single point]. With `CC(=O)Nc1ccc(S(=O)(=O)N(C)CC(=O)OC(C)C(=O)NC2CCCCC2)cc1` (stereo not drawn), the cell number change was 7.5%. `OCCCCCNc1ncnc2ccccc12`: the cell number change was -23.7%. Also, the AC50 under setting [1] is 20.6 µM [falling, single point]. Consider `COc1ccccc1C(=O)Nc1ccnn1C1CCN(C(=O)C(C)(C)C)CC1`, for which the cell number change was -5.5%. As to `CCCc1nnc(NC(=O)CCC(=O)NC2CCCc3ccccc32)s1` (stereo not drawn), the cell number change turned out to be 28.8%. Besides, the AC50 under setting [1] is 6.51 µM [rising, full curve, poor fit].

In the case of `CSc1ccccc1NC(=O)CN(C)CC(=O)Nc1ccc(N2CCOCC2)cc1`, the concentration at half-maximal activity (AC50) is 6.51 µM [rising, single point] under setting [2] and 2.91 µM [rising, full curve, poor fit] under setting [1]. In the case of `Cc1ncc(CN2CCCC(C(=O)Nc3ccc(-n4ccnc4C)cc3)C2)cn1` (stereo not drawn), the cell number change is 1.15%.

In the case of `O=C(Nc1ccccc1)C1CCN(C(=O)c2ccco2)CC1`, the cell number change turned out to be 14.1%. Besides, the AC50 under setting [1] is 0.116 µM [falling, single point]. Consider `O=C(O)C(NS(=O)(=O)c1ccccc1)C(O)c1ccccc1` (stereo not drawn), for which the cell number change is 8.8%.

As for `O=C(/C(=C/c1ccccc1)n1cncn1)c1ccc(Cl)cc1Cl`, the cell number change is -7.8%. Moreover, the AC50 under setting [1] was 25.9 µM [falling, single point]. `CC(C)(C)c1ccc(C(=O)N2CCN(c3ncccn3)CC2)cc1`: the cell number change is 4.26%. Besides, the AC50 under setting [1] was 6.51 µM [rising, single point]. In the case of `Cc1cc(C(=O)CCC(=O)Nc2ncccc2C)c(C)s1`, the cell number change is -53%. Moreover, under setting [2], the concentration at half-maximal activity (AC50) was 29.1 µM [falling, single point]. Under setting [1], the AC50 is 20.6 µM [falling, single point]. On to `CCOc1ccc(NC(=O)CC2C(=O)N(c3ccc(OC)cc3)C(=O)N2Cc2ccc(OC)cc2)cc1` (stereo not drawn), for which the cell number change came out at 22%. Moreover, the half-maximal activity concentration (AC50) under setting [2] was 0.58 µM [rising, single point]. Also, the concentration at half-maximal activity (AC50) under setting [1] is 6.51 µM [rising, single point].

`CCCC(=O)NC(=S)Nc1cccc(Cl)c1N1CCCCC1`: the cell number change was -125%. In addition, the AC50 under setting [2] is 20.6 µM [falling, single point]. Also, under setting [1], the AC50 is 29.1 µM [falling, single point]. In the case of `COc1ccccc1C/C(N)=N/OC(=O)COc1cccc2ccccc12`, the cell number change is -16.4%. Also, the half-maximal activity concentration (AC50) under setting [1] is 6.51 µM [falling, full curve, poor fit]. On to `O=c1[nH]c2cc(S(=O)(=O)CCO)ccc2o1`, for which the cell number change was -3.93%. Moreover, under setting [1], the AC50 was 4.61 µM [falling, single point].

On to `CCCCCCCn1c(C)nnc1-c1cnn(C)c1N`, for which the cell number change is 44.3%. Further, under setting [2], the AC50 is 16.4 µM [rising, single point]. Also, the AC50 under setting [1] was 16.4 µM [rising, single point]. On to `Cc1cc(C)cc(C(=O)Nc2ccc3[nH]c(=O)[nH]c3c2)c1`, for which the cell number change is -0.0963%. In addition, under setting [2], the AC50 was 6.51 µM [falling, single point]. Further, the AC50 under setting [1] was 6.51 µM [falling, single point]. `CN(C)CCCNC(=O)COc1ccc(Br)cc1Cl`: the cell number change is -3.45%. Besides, under setting [1], the AC50 was 20.6 µM [rising, single point].

For the molecule `CCC[N+](CC#Cc1ccccc1)(CCC)CC(=O)OC`, the cell number change was -11.7%. For the same molecule, under setting [2], the AC50 is 1.16 µM [rising, full curve]. Besides, the AC50 under setting [1] was 4.11 µM [rising, partial curve]. Regarding `Cc1nc2cc(O)ccc2n1C`, the cell number change was found to be 18%.

Consider `COc1ccc(NC(=O)c2cccn(CC=C(C)C)c2=O)cc1`, for which the cell number change is 99.7%. The concentration at half-maximal activity (AC50) under setting [2] is 0.58 µM [falling, partial curve, poor fit]. In the case of `CCCCC(O)CN1CCC(c2ccccc2)CC1` (stereo not drawn), the cell number change was -69.7%. For the same molecule, under setting [2], the AC50 was 5.8 µM [falling, full curve]. In addition, the AC50 under setting [1] was 6.51 µM [falling, single point]. Take `Cn1c(SC2=CS(=O)(=O)c3ccccc32)nc2ccccc21`: the AC50 under setting [1] is 29.1 µM [falling, single point]. As to `Cn1c(C(=O)NCC2CCCO2)cc2c(=O)n(C)c3ccccc3c21` (stereo not drawn), the AC50 is, setting by setting: under setting [2], 0.517 µM [rising, full curve]; under setting [1], 1.3 µM [rising, full curve].

For the molecule `COc1cc(/C=N/Nc2nc(Nc3ccccc3)nc(N3CCCCC3)n2)ccc1OCC(=O)O`, the AC50 was 0.82 µM [falling, single point] under setting [2] and 0.58 µM [falling, single point] under setting [1]. `C=CCSc1nnc(C)c(/C=C/Nc2ccc(Cl)cc2)n1`: the cell number change stood at 12.1%.

`Cc1cc(C)cc(NC(=O)CSc2nnc(NC(=O)C3CC3)s2)c1`: the cell number change worked out at 21.8%.

In the case of `CCCNS(=O)(=O)c1cc(CN2C(=O)c3cccnc3C2=O)ccc1OC`, the cell number change is -16.9%. Besides, the AC50 under setting [1] is 6.51 µM [rising, single point]. Consider `CCN1C(=NCC(C)C)N[C@@H](c2cccc(C(F)(F)F)c2)C(C(=O)OC)=C1C`, for which the cell number change was 18.6%. Further, under setting [1], the AC50 was 2.59 µM [rising, partial curve, poor fit]. As to `CN(CCCC(=O)O)S(=O)(=O)c1ccc2c(c1)C(=O)c1cc(S(=O)(=O)N(C)CCCC(=O)O)ccc1-2`, the cell number change amounted to 24.9%. In addition, under setting [1], the AC50 is 0.58 µM [rising, single point]. Turning to `CCC1(CC)NC(=O)N(CC(=O)OCC(=O)Nc2sccc2C#N)C1=O`, the cell number change is -11%. Under setting [2], the AC50 is 4.11 µM [rising, single point]. On to `O=S(=O)(NCC(Nc1ccc(Cl)cc1)c1ccccc1)c1ccc(Cl)cc1` (stereo not drawn), for which the cell number change was -67.4%. Further, the AC50 under setting [2] is 18.4 µM [falling, partial curve]. In addition, the AC50 under setting [1] is 18.4 µM [falling, partial curve].

For `CC(c1nnc(SCC(=O)N2CC(=O)Nc3ccccc32)n1Cc1ccccc1)N(C)C` (stereo not drawn), the cell number change is 19.5%. Moreover, under setting [1], the AC50 was 2.31 µM [falling, partial curve]. As for `O=C(COc1coc(CN2CCc3ccccc3C2)cc1=O)N1CCOCC1`, under setting [1], the AC50 is 6.51 µM [rising, partial curve, poor fit]. Regarding `O=C(NNC(=S)Nc1cccc(C(F)(F)F)c1)c1ccc(Cl)cc1Cl`, the cell number change is -42.3%. Also, the AC50 under setting [2] was 5.8 µM [falling, partial curve, poor fit]. Besides, the AC50 under setting [1] was 23.1 µM [falling, single point]. `O=C(OCc1c(Cl)cccc1Cl)c1ccccn1`: the cell number change was -3.22%. Also, under setting [2], the AC50 is 0.651 µM [falling, single point]. Regarding `OCCNc1ccc(Cl)cc1`, the cell number change is -5.52%. Also, the AC50 under setting [1] is 1.03 µM [falling, full curve, poor fit]. Turning to `COc1cc(/C=N/NC(=S)NCCN2CCOCC2)cc(OC)c1OC`, the cell number change was found to be 3.41%. In addition, under setting [1], the AC50 was 3.26 µM [rising, full curve, poor fit]. For `O=C(NCCOc1ccc(Cl)cc1)C1CCCCC1`, the cell number change was 24%. For the molecule `O=S(=O)(Nc1ccccc1Cl)c1ccc2[nH]c(=S)oc2c1`, the cell number change turned out to be 9.66%. Besides, the AC50 under setting [1] was 29.1 µM [rising, single point]. As for `O=C(NC1CCCC1)C1=COCCO1`, the cell number change stood at 17.3%. Also, under setting [1], the AC50 is 20.6 µM [falling, single point].

On to `O=C(Nc1ccc(NC(=O)c2ccc([N+](=O)[O-])cc2[N+](=O)[O-])cc1)c1ccco1`, for which the cell number change came to 8.56%. Besides, under setting [1], the AC50 was 0.58 µM [rising, single point].

Take `Cn1c(=O)c2c(nc(NCc3ccccc3)n2Cc2ccc(F)cc2)n(C)c1=O`: the cell number change is -24.6%. Further, the AC50 under setting [1] is 7.31 µM [falling, partial curve]. For `CC(=O)Nc1cccc(-c2cc(C)c3cc4c(cc3n2)OCO4)c1`, the cell number change was -23.6%. The same measure, in the same setting: in the case of `C=CCN(C(=O)CCC(=O)Nc1cc(C)on1)C(C(=O)NC(C)(C)C)c1ccc(OC)cc1` (stereo not drawn) it was 6.35%. For the molecule `O=C(COc1ccc(S(=O)(=O)N2CCCC2)cc1)N1CCCCC1`, the cell number change was determined as 3.6%. Besides, the AC50 under setting [1] was 2.91 µM [falling, single point]. `CN1C(=O)[C@H]2[C@@H](c3ccc(F)cc3)N3C(=O)c4ccccc4NC(=O)[C@@]3(C)[C@H]2C1=O`: the cell number change came out at 29.9%. On to `CCc1ccc(N2C(=O)CC(N(CC3CCCO3)C(=O)/C=C/C(=O)O)C2=O)cc1` (stereo not drawn), for which the cell number change is -30.3%. Also, under setting [2], the AC50 was 5.8 µM [falling, full curve, poor fit]. Also, under setting [1], the AC50 is 0.82 µM [falling, single point].

For `Cn1c(C(=O)OCC(=O)NCCc2ccccc2)cc2sccc21`, the cell number change was -12.3%. Also, the AC50 under setting [1] is 3.66 µM [rising, full curve]. As to `COc1ccccc1/C=C/C(=O)OCC(=O)c1cc(C)n(C)c1C`, the half-maximal activity concentration (AC50) under setting [1] is 0.92 µM [falling, full curve]. As to `CCc1ccc(NC(=O)CCNS(=O)(=O)c2cccc3nsnc23)cc1`, the cell number change is 43.7%. Further, under setting [2], the AC50 is 29.1 µM [rising, single point]. Under setting [1], the AC50 was 29.1 µM [rising, single point]. On to `CCCn1c(N)c(N(CCOC)C(=O)CSCC(=O)Nc2cccc(C)c2)c(=O)[nH]c1=O`, for which the cell number change was -33%. The AC50 under setting [2] is 1.3 µM [falling, full curve].
